Laboratory results as given in article PMC10765799.
These are yes or no findings as the source states them, for the method shown. Binding calls can cover weak binding; strength is not graded here. Where a sequence is shown, tags or fusion partners need not be part of it. For part of these data: Binding seen in cells or lysates may run through a third protein.

B1: myc-tagged mSin3A (protein, UniProt Q60520 1-1274)
chain: MKRRLDDQESPVYAAQQRRIPGSTEAFSHQHRVLAPAPPVYEAVSETMQSATGIQYSVAPNYQVSAVPQSSGSHGPAIAAVHSSHHHPTAVQPHGGQVVQSHAHPAPPVAPVQGQQQFQRLKVEDALSYLDQVKLQFGSQPQVYNDFLDIMKEFKSQSIDTPGVISRVSQLFKGHPDLIMGFNTFLPPGYKIEVQTNDMVNVTTPGQVHQIPTHGIQPQPQPPPQHPSQPSSQSAPTPAQPAPQPTAAKVSKPSQLQAHTPASQQTPPLPPYASPRSPPVQPHTPVTISLGTAPSLQNNQPVEFNHAINYVNKIKNRFQGQPDIYKAFLEILHTYQKEQRNAKEAGGNYTPALTEQEVYAQVARLFKNQEDLLSEFGQFLPDANSSVLLSKTTAEKVDSVRNDHGGTVKKPQLNNKPQRPSQNGCQIRRHSGTGATPPVKKKPKLMSLKESSMADASKHGVGTESLFFDKVRKALRSAEAYENFLRCLVIFNQEVISRAELVQLVSPFLGKFPELFNWFKNFLGYKESVHLESFPKERATEGIAMEIDYASCKRLGSSYRALPKSYQQPKCTGRTPLCKEVLNDTWVSFPSWSEDSTFVSSKKTQYEEHIYRCEDERFELDVVLETNLATIRVLEAIQKKLSRLSAEEQAKFRLDNTLGGTSEVIHRKALQRIYADKAADIIDGLRKNPSIAVPIVLKRLKMKEEEWREAQRGFNKVWREQNEKYYLKSLDHQGINFKQNDTKVLRSKSLLNEIESIYDERQEQATEENAGVPVGPHLSLAYEDKQILEDAAALIIHHVKRQTGIQKEDKYKIKQIMHHFIPDLLFAQRGDLSDVEEEEEEEMDVDEATGAPKKHNGVGGSPPKSKLLFSNTAAQKLRGMDEVYNLFYVNNNWYIFMRLHQILCLRLLRICSQAERQIEEENREREWEREVLGIKRDKSDSPAIQLRLKEPMDVDVEDYYPAFLDMVRSLLDGNIDSSQYEDSLREMFTIHAYIAFTMDKLIQSIVRQLQHIVSDEVCVQVTDLYLAENNNGATGGQLNSQTSRSLLESAYQRKAEQLMSDENCFKLMFIQSQGQVQLTVELLDTEEENSDDPVEAERWSDYVERYMSSDTTSPELREHLAQKPVFLPRNLRRIRKCQRGREQQEKEGKEGNSKKTMENVESLDKLECRFKLNSYKMVYVIKSEDYMYRRTALLRAHQSHERVSKRLHQRFQAWVDKWTKEHVPREMAAETSKWLMGEGLEGLVPCTTTCDTETLHFVSINKYRVKYGTVFKAP
B2: Gal4 AD-mSin3A (full-length) (protein, UniProt Q60520 1-1274)
chain: B1 chain

Legend:
[1] = target: HA-SAP130 3KA (K794A/K878A/K932A) (human); experiment: co-IP; COS-1 cells co-transfected, lysed after 48 h in modified RIPA buffer (50 mM Tris-HCl pH 7.8, 150 mM NaCl, 5 mM EDTA, detergents); IP with anti-HA, Western blot with anti-FLAG or anti-Myc
HA-SAP130 WT (human) = experiment: as above
[2] = target: LexA-SAP130 C-terminal region (amino acids 760-1048) WT (human); experiment: two-hybrid; LexA-SAP130 C-terminal region (760-1048) baits against Gal4 AD preys in L40 yeast; growth without histidine, X-Gal plates, liquid beta-galactosidase assay

Binder	binding [1]	binding (HA-SAP130 WT (human))	binding [2]
B1	binds	binds	–
B2	–	–	binds weakly
